PubChem BioAssay AID1117319 (Southern Research Institute, 2015)
Values joined by “and” are separate entries in the source; they are usually repeats but may differ in a detail not shown here. Equal entries are not always repeated. Screen size: about 260,000 compounds; about 1,500 (0.58%) were called active. This list was built around the results that the source calls inconclusive (neither active nor inactive); the mix of calls is not that of the screen.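 Rule for the calls: active = inhibition above a set limit at one or more doses, reproduced on every date tested; inconclusive = results disagree between test dates, or hit never tested in dose response; inactive = the rest.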

Amino acid sequences for entries named in this document (tags omitted). A change or cut given only in a name is not applied to a line headed by its entry.
UniProt P69720: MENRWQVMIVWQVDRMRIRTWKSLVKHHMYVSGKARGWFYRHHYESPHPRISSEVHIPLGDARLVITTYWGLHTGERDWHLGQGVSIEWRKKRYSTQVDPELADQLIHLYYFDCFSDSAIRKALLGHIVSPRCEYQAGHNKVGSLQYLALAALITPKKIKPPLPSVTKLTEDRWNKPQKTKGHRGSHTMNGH
UniProt P69721: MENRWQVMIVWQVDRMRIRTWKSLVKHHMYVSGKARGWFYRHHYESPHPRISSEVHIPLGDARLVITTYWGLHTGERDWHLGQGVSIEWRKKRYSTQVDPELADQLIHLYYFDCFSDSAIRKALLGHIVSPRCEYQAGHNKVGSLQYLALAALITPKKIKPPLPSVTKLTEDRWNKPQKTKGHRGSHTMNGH
UniProt P69722: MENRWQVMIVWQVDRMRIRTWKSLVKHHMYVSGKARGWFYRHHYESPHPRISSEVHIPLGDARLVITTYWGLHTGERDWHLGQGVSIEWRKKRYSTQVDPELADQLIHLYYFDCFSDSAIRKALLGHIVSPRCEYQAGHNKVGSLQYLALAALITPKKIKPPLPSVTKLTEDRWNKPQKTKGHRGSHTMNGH
UniProt P69723: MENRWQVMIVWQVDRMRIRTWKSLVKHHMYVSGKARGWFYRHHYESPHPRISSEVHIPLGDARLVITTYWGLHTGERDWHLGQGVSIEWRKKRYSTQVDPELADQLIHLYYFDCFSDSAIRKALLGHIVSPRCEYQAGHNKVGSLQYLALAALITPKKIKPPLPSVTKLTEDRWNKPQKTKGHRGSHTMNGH
UniProt Q9HC16: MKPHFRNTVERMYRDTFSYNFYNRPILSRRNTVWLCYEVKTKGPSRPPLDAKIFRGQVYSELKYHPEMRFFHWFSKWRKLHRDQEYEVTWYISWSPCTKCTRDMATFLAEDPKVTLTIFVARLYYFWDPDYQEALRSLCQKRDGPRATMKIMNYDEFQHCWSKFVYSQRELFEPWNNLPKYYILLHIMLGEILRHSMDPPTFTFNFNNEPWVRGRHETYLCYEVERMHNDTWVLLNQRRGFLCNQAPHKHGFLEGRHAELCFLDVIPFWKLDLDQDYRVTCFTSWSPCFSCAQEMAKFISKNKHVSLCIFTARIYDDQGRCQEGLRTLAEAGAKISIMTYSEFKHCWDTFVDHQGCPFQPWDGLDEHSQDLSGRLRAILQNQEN

target: Virion infectivity factor (Human immunodeficiency virus type 1 group M subtype B (isolate BH10)) + Virion infectivity factor (Human immunodeficiency virus type 1 group M subtype B (isolate BRU/LAI)) + Virion infectivity factor (Human immunodeficiency virus type 1 group M subtype B (isolate PCV12)) + Virion infectivity factor (Human immunodeficiency virus type 1 group M subtype B (isolate HXB2)) + DNA dC->dU-editing enzyme APOBEC-3G (Homo sapiens) (UniProt P69720+P69721+P69722+P69723+Q9HC16); test: inhibitors of Vif binding to APOBEC3G peptide, primary screen, biochemical, TR-FRET, GST-Vif 1-94, biotin-A3G peptide, dose response retest (AID 1117319); conditions: stronger effect = higher value;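 note: Vif residues 1-94 fused to GST binding biotinylated APOBEC3G peptide 110-148; 0% = full assay without inhibitor and 100% = GST in place of GST-Vif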

Row | SMILES | inhibition
1 | FC(F)(F)c1ccc(N2CCN(Cc3ccc4c(c3)OCO4)CC2)nc1 | inactive: -10.1%
2 | CC1CN(C(=O)COC(=O)c2cnc(Cl)c(Cl)c2)CC(C)O1 (stereo unspecified) | inactive: -12.2%
3 | CCN(CC)C(=S)NCCc1ccccc1 | inconclusive: 43.7%
4 | COc1nc(N(CC(N)=O)S(=O)(=O)c2ccccc2)nc(C)c1Cl | inconclusive: 45.7%
5 | Cc1c(C(=O)N2CCOCC2)sc2ncnc(N3CCc4ccccc4C3)c12 | inconclusive: 63%
6 | CCCN(C(=O)COc1ccc(Cl)cc1Cl)c1c(N)n(Cc2ccccc2)c(=O)[nH]c1=O | inconclusive: 36.9%
7 | Nc1ccc(Nc2ccccc2)c(Cl)c1 | inconclusive: 41.7%
8 | O=C(Nc1nccs1)c1cc(-c2ccco2)nc2ccccc12 | inconclusive: 46.7%
9 | NS(=O)(=O)c1ccc(C(=O)O)cc1 | inconclusive: 37.8%
10 | Cc1ccc(C(C(=O)NC2CCCC2)N(Cc2ccc3c(c2)OCO3)C(=O)c2snc(C(N)=O)c2N)cc1 (stereo unspecified) | inconclusive: 57.8%
11 | CN(C(=O)Cn1nnc(-c2cccnc2)n1)C1CCCCC1 | inactive: 8.32%
12 | CC1CN(S(=O)(=O)c2cccc(C(=O)OCC(=O)NCc3ccccc3)c2)CC(C)O1 (stereo unspecified) | inactive: -6.28%
13 | CN(c1ccc(OCC(=O)OCC(=O)NC2CCCC2)cc1)S(=O)(=O)c1ccc2ccccc2c1 | inconclusive: 53.2%
14 | Cc1cccc(OCCCC(=O)Nc2nccs2)c1C | inconclusive: 48.7%
15 | COc1ccc2c(Cl)c(C(=O)NCCCn3ccnc3)sc2c1Cl | inconclusive: 52.5%
16 | CC(C(=O)Nc1cccnc1)N1C(=O)C2C3C=CC(C3)C2C1=O (stereo unspecified) | inconclusive: 41.9%
17 | Clc1ccc2oc3c(Cl)ncnc3c2c1 | inconclusive: 50%
18 | CC1CCN(CCCCOc2cccc(Br)c2)CC1 | inactive: -0.02%
19 | CC(/C=C/c1ccco1)=N\NC(=O)c1cc(C)[nH]n1 | inconclusive: 38%
20 | O=C(NC(=S)Nc1ccc2c(c1)OCCO2)c1ccccc1 | inconclusive: 35.9%
21 | CN1C(=O)N(C)C2C1N(CN1CCCCC1)C(=O)N2CN1CCCCC1 (stereo unspecified) | inconclusive: 46.2%
22 | CCOC(=O)Cn1nc(C)n(-c2ccccc2)c1=O | inconclusive: 35.3%
23 | COc1ccc2nc(NC(=O)c3ccc(NS(=O)(=O)c4cccs4)cc3)sc2c1 | inconclusive: 37.9%

12 compounds already listed, arranged by number of heavy atoms, largest number first:
Row | SMILES | inhibition
13 | CN(c1ccc(OCC(=O)OCC(=O)NC2CCCC2)cc1)S(=O)(=O)c1ccc2ccccc2c1 | inconclusive: 53.2%
6 | CCCN(C(=O)COc1ccc(Cl)cc1Cl)c1c(N)n(Cc2ccccc2)c(=O)[nH]c1=O | inconclusive: 36.9%
12 | CC1CN(S(=O)(=O)c2cccc(C(=O)OCC(=O)NCc3ccccc3)c2)CC(C)O1 (stereo unspecified) | inactive: -6.28%
23 | COc1ccc2nc(NC(=O)c3ccc(NS(=O)(=O)c4cccs4)cc3)sc2c1 | inconclusive: 37.9%
21 | CN1C(=O)N(C)C2C1N(CN1CCCCC1)C(=O)N2CN1CCCCC1 (stereo unspecified) | inconclusive: 46.2%
15 | COc1ccc2c(Cl)c(C(=O)NCCCn3ccnc3)sc2c1Cl | inconclusive: 52.5%
8 | O=C(Nc1nccs1)c1cc(-c2ccco2)nc2ccccc12 | inconclusive: 46.7%
11 | CN(C(=O)Cn1nnc(-c2cccnc2)n1)C1CCCCC1 | inactive: 8.32%
14 | Cc1cccc(OCCCC(=O)Nc2nccs2)c1C | inconclusive: 48.7%
19 | CC(/C=C/c1ccco1)=N\NC(=O)c1cc(C)[nH]n1 | inconclusive: 38%
7 | Nc1ccc(Nc2ccccc2)c(Cl)c1 | inconclusive: 41.7%
9 | NS(=O)(=O)c1ccc(C(=O)O)cc1 | inconclusive: 37.8%

(list continues)

Row | SMILES | inhibition
24 | Cc1ccc(-n2ncc3c(=O)n(CC(=O)NCc4ccco4)cnc32)cc1C | inconclusive: 34.5%
25 | O=C(c1cc(COc2ccc3ncccc3c2)on1)N1CCCCCC1 | inconclusive: 59.5%
26 | Cc1cc(C)n2c(SCC(=O)NCc3ccco3)nnc2n1 | inconclusive: 55.3%
27 | CC(=O)c1ccc(NC(=O)Cn2nc(C)cc2C)cc1 | inactive: 1.14%
28 | O=C1CC(c2ccco2)CC(O)=C1C=NCCO (stereo unspecified) | inconclusive: 57%
29 | CCOc1cc(S(=O)(=O)NCc2ccc(OC)cc2)c(OCC)cc1-n1cnnn1 | inconclusive: 44.3%
30 | COc1ccc(OC)c(C2C3=C(CCCC3=O)NC3=C2C(=O)CCC3)c1 | inconclusive: 38.5%
31 | CCCCN(C)C(=O)c1ccc(CS(=O)(=O)c2ccccc2C)o1 | inconclusive: 48.3%
32 | COc1ccc(NC(=O)C2CCN(Cc3cnn(-c4ccccc4)c3-n3cccc3)CC2)cc1OC | inconclusive: 40.4%
33 | CCCCn1c(SCC(=O)NCc2ccco2)nnc1-c1ccoc1C | inconclusive: 35.1%
34 | CCc1ccc(CC)c(S(=O)(=O)Nc2ccc(O)c(C(=O)O)c2)c1 | inconclusive: 49.5% and inactive: -4.21%
35 | Nc1c(C(=O)Nc2nc3ccccc3s2)sc2nc(-c3cccs3)ccc12 | inconclusive: 42.5%
36 | C=CCn1c(Cc2nc3ccc(Cl)cc3[nH]2)n[nH]c1=S | inconclusive: 62.4%
37 | O=C(Cc1ccccc1)N/N=C/C=C/c1cccc([N+](=O)[O-])c1 | inconclusive: 43.4%
38 | Cc1ccc(S(=O)(=O)N2CCC(=O)N(CCOC(=O)Nc3ccc(C)c(C)c3)CC2)cc1 | inconclusive: 35.8%
39 | O=C(NCCc1cccs1)C1CC(c2cccc([N+](=O)[O-])c2)=NO1 (stereo unspecified) | inconclusive: 49.9%
40 | O=S(=O)(O)c1ccc(N=Nc2ccccc2)cc1 | inconclusive: 44.8%
41 | CN1CCN/C1=C(/C(Cl)=C(Cl)Cl)[N+](=O)[O-] | inconclusive: 37.5%
42 | Cc1ccc(C2(C)NC(=O)N(CC(=O)Nc3nc(-c4ccccn4)cs3)C2=O)cc1 (stereo unspecified) | inactive: 0.48%
43 | COc1ccc(OC)c(C2=Nn3c(nnc3-c3ccco3)SC2)c1 | inconclusive: 19.2%
44 | COCCNC(=O)CS(=O)(=O)Cc1nc(-c2ccc(C)cc2)oc1C | inconclusive: 49.2%
45 | COc1ccc(OC)c(N=C(C)C2=C(O)COC2=O)c1 | inconclusive: 55%
46 | O=C(O)c1cc2c(ccc3ccccc32)o1 | inconclusive: 34.4%
